Results: PubChem BioAssay AID662 (National Center for Advancing Translational Sciences (NCATS), 2007)
Some of the results follow. The main result of the screen is listed elsewhere. These columns were measured beside it and carry no call. The list favours compounds with an active or inconclusive main result. Words in brackets tell the shape of the fitted curve; partial curves, single points and poor fits give uncertain potencies.

Test: Cell signaling CRE-BLA (Fsk stim)
Details: CHO CRE-bla reporter (cAMP response element driving beta-lactamase), forskolin EC10, beta-lactamase ratio; measured here: 460 nm blue channel
Procedure, shortened: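 The 460nm/530nm emission ratio after CCF4 loading defined %Activity, from which AC50 values were obtained. CRE-bla CHO cells received compound dilution series together with an EC10 level of NKH 477 for 3 hours at 37 degrees Celsius.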

Row | Structure (SMILES) | AC50
1 | COc1ccc(C(=O)NCCn2cc(SCC(=O)NCc3ccco3)c3ccccc32)cc1 | 0.398 µM [falling, full curve, poor fit]
2 | Cc1ccc(-c2ccc(/C=N/n3cnnc3)o2)cc1Cl | 15.8 µM [rising, partial curve]
3 | Cc1ccc(NC(=O)c2cccc(OCc3c(C)noc3C)c2)c(C)c1 | 0.794 µM [falling, partial curve]
4 | Cc1ccccc1C(=O)OCn1nnc2ccccc2c1=O | 12.6 µM [rising, partial curve]
5 | CCOC(=O)c1nn(-c2ccc3c(c2)CCN3C(C)=O)cc1O | 10 µM [rising, single point]
6 | COc1cccc2[nH]c3c(N4CCC(C)CC4)ncnc3c12 | 10 µM [rising, single point]
7 | Cc1cc(C)n2nc3nc(N4CCCC4)nc(-c4ccccc4)c3c2n1 | 7.94 µM [rising, partial curve]
8 | CCCCn1c(NC(C)=O)c(C#N)c2nc3ccccc3nc21 | 12.6 µM [rising, partial curve]
9 | N#Cc1nc(-c2ccco2)oc1N1CCN(c2cccc(Cl)c2)CC1 | 1.58 µM [rising, partial curve]
10 | CC(Sc1nc(N(C)C)nc(N2CCOCC2)n1)C(=O)Nc1ccccc1 (centres undefined) | 15.8 µM [rising, partial curve]
11 | Cc1ccc2c(c1)c1c3n2CCN[C@H]3CCC1 | 20 µM [falling, single point]
12 | Cc1ccc(NC(=O)CSc2n[nH]c(-c3ccncc3)n2)cc1C | 5.01 µM [falling, single point]
13 | COCCn1c(=O)c(-c2ccc(OC)cc2)nc2cnc(Oc3cccc(Cl)c3)nc21 | 3.16 µM [rising, partial curve]
14 | CCCSc1ncnc2c1oc1ccccc12 | 12.6 µM [rising, partial curve]
15 | CC(=O)Nc1ccc(S(=O)(=O)Nc2nc3ccccc3nc2N2CCCC2)cc1 | 10 µM [rising, partial curve, poor fit]
16 | Cn1c(=O)c(-c2ccc(Cl)cc2)nc2cnc(OCc3ccccc3)nc21 | 25.1 µM [rising, single point]
17 | CCSc1nc(C)nc2c1oc1ccccc12 | 10 µM [rising, single point]
18 | COc1cc(OC)c(C2C(C#N)=C(N)OC3=C2C(=O)CC(C)(C)C3)cc1OC (centres undefined) | 0.158 µM [rising, full curve]
19 | CCOC1(NC(=O)c2ccccc2)C(C)=CC(=O)C=C1C | 3.98 µM [falling, partial curve]
20 | COc1cccc(C(=O)N2CCN(Cc3cccc(F)c3)CC2)c1 | 3.16 µM [falling, single point]
21 | O=C1c2ccncc2C(=O)N1CO | 0.126 µM [falling, full curve]
22 | CC(C)C[C@@H](CC(=O)N[C@H](CC(=O)N[C@@H]1CCCC[C@H]1C(=O)N[C@H](CC(=O)N[C@@H](CCC(=O)O)CC(=O)O)Cc1ccccc1)C(C)C)NC(=O)[C@@H]1CNCC[C@H]1N | 12.6 µM [falling, partial curve]

Row | Structure (SMILES) | AC50
23 | Cc1noc(C)c1COC(=O)CCC(=O)c1ccc(F)cc1 | 5.01 µM [falling, single point]
24 | COCCOC(=O)C1=C(C)NC2=C(C(=O)CCC2)C1c1ccc2c(c1)OCO2 (centres undefined) | 3.16 µM [rising, partial curve, poor fit]
25 | Cc1cc(C)nc(SCC2COc3ccccc3O2)n1 (centres undefined) | 12.6 µM [rising, single point]
26 | CCCn1nc(C(=O)NCCc2ccc(S(N)(=O)=O)cc2)c2ccccc2c1=O | 10 µM [rising, partial curve]
27 | CC(C(=O)NC1=NCCS1)N1C(=O)c2ccccc2C1=O (centres undefined) | 0.00398 µM [falling, full curve, poor fit]
28 | O=C(CSc1ncn(-c2ccccc2)n1)N1CCc2ccccc21 | 0.316 µM [falling, partial curve, poor fit]
29 | COC(=O)CSc1nnc(CNC(=O)c2ccc(OC)cc2OC)n1C | 25.1 µM [rising, single point]
30 | CC(=O)N1CCCc2cc(S(=O)(=O)NC(C(=O)NC(C)c3ccccc3)C(C)C)ccc21 (centres undefined) | 3.16 µM [falling, single point]
31 | CCCc1nc2oc3cc(OC)ccc3c(=O)c2c(=O)n1Cc1ccco1 | 0.0158 µM [rising, full curve]
32 | Cc1ncc(CO)c(CO)c1O | 12.6 µM [falling, single point]
33 | C=CCc1ccccc1OCC(O)CNC (centres undefined) | 5.01 µM [falling, single point]
34 | CCNc1ncc2nc(-c3ccccc3)c(=O)n(C)c2n1 | 2 µM [rising, full curve]
35 | Cc1ccn2cc(CCNC(=O)c3ccc(Br)o3)nc2c1 | 10 µM [rising, partial curve]
36 | COc1ccc(-c2cc(NCCc3ccncc3)n3ncnc3n2)cc1 | 10 µM [rising, partial curve]
37 | Cc1ccc(C(C(=O)NCc2ccco2)N(Cc2ccco2)C(=O)CNC(=O)c2ccco2)cc1 (centres undefined) | 31.6 µM [falling, single point]
38 | CCOC(=O)c1c(C)[nH]c(C(=O)OCC(=O)Nc2cc(C)ccc2OC)c1C | 7.94 µM [rising, partial curve]
39 | CCOc1ccc(CCNS(=O)(=O)c2c(C)n[nH]c2C)cc1OCC | 10 µM [rising, partial curve]
40 | c1ccc(Cn2c(CNc3nc4ccccc4n3CCN3CCOCC3)nc3ccccc32)cc1 | 7.94 µM [falling, partial curve]
41 | Cc1ccc(N2CCN(C(=O)CNS(=O)(=O)c3ccc(Br)s3)CC2C)cc1 (centres undefined) | 25.1 µM [rising, single point]
42 | COc1ccccc1CNc1ncncc1-c1ccc2c(c1)OCO2 | 10 µM [rising, partial curve]
43 | CN1CCc2cc(Cl)c(O)cc2[C@@H](c2ccccc2)C1 | 25.1 µM [falling, partial curve, poor fit]
44 | COC(=O)c1c(NC(=O)C2CC2)sc2c1CCCC2 | 12.6 µM [rising, single point]

No new results follow: an excerpt of the list.
Row | Structure (SMILES) | AC50
30 | CC(=O)N1CCCc2cc(S(=O)(=O)NC(C(=O)NC(C)c3ccccc3)C(C)C)ccc21 (centres undefined) | 3.16 µM [falling, single point]
31 | CCCc1nc2oc3cc(OC)ccc3c(=O)c2c(=O)n1Cc1ccco1 | 0.0158 µM [rising, full curve]
32 | Cc1ncc(CO)c(CO)c1O | 12.6 µM [falling, single point]
